Results on two molecules are retold here after paper doi:10.1101/2025.01.22.634223.

Results are given in words; binding and its absence hold for the method and conditions named. For some assays here: Binding can be weak; no strength is given. Where a sequence is shown, tags or fusion partners need not be part of it.

For test [1], the target named is GDI-1 (wild type), yeast two-hybrid fusion (C. elegans). As to the kind of experiment: two-hybrid.
In test [2] the target is GST::GDI-1 (C. elegans). As to the kind of experiment: pull-down.

B1: RAB-28, yeast two-hybrid fusion (protein, UniProt Q9XWR6 1-248)
chain: MTTMGEDEAPALPKKSPLPEKIDEADVDDDPDDKVIKIVVVGDGASGKTSICQRFAKESFDKSYHQTLGLDFFSRRITLPHEMQVLVQVWDIGGQSIAGEMIDKYLTGANIVFLVYDVTNSKSFENAVDWLSVVKKNTKSSETPVKLVLMGNKTDLEERRVVSVEAHKNFATSNDMMPTYVSAKTGDTVFLTFRQAVAEVLNVGLSRAEVEADIEIVQGSVIEQPKQSDASYARRSDQSRSTSVCSIT
Regarding B1, in test [1], the binding result is recorded as “binds”.

B2: 6HIS::MYC:RRAB-28::6HIS (protein, UniProt Q9XWR6 1-248)
chain: B1 chain
For the molecule B2, in test [2], the binding entry was “no binding”.
